# Source: the supplement of paper PMC8728848
# This is one part of the list.
# B1: PX14379D-pdi-530-26-530 (Parabacteroides distasonis) (protein)
# chain: DETVYDKLPADDFGQSTAELNALIGNSHNTMKKFWTEYMHLSECSGSMAVTPTRRGGDWYDGGQYREIYMHTWTSQTSRVKSAWKAATEAIGTCNEAIRKLQNSEILTEEEKAQDVADLRGVRAFWIYVMMDYWGNIPLLTEFHPTDKVFPGNSSRQEVFDWLIQEVEEIKDICPPATTENYGSFTQGAAYSLLAKLYLNAEAWGVTFSGNAYQKVIDNCDKVMAMGYILEPNWKDNFSVTNENSKEAILAATFSSSDTGNDGNVKNELHNNTLHYKDYLSLGITASGTWNGICAQPEYVRLFDEEDARLDGTFLTGLMIDKSTGKPIMTDHNNELNHTIDVNMIPGMEYDGTNWSAVEQHDGARCFKWEFASDLTSSMGNDFHIFRLADIYLMKAEALLRGGGSVSEATALVNTIRERGYGNSDHNYATVTLKEVQLERRLELAWEVYSRQDDIRFGCFTTGMWPQSNCERKADDYLKLLPVSQDAWQVNPNLKQNPGYAAFSK
# Experiments:
# Test in all cases: glycan array binding signal (z-score within array); higher = stronger binding
# Details in all cases: glycan notation: IUPAC condensed, linker removed
# [1] = molecular target: Neu5Ac(a2-6)Gal(b1-4)GlcNAc(b1-2)Man(a1-3)[Man(a1-6)]Man(b1-4)GlcNAc(b1-4)GlcNAc
# In short: (§1)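 Glycan array data were curated from 3228 arrays in the Consortium for Functional Glycomics database and kept only where the protein sequence was available. Glycan names were converted to IUPAC-condensed notation, and columns mapping to the same glycan were averaged. The binding signal is a within-array Z-score, averaged across arrays of the same protein sequence at different concentrations or buffers and across linkers. Negative Z-scores can be read as non-binding.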
# [2] = molecular target: Neu5Ac(a2-6)Gal(b1-4)GlcNAc(b1-2)Man(a1-3)[Neu5Ac(a2-3)Gal(b1-4)GlcNAc(b1-2)Man(a1-6)]Man(b1-4)GlcNAc(b1-4)GlcNAc
# In short: as §1
# [3] = molecular target: Neu5Ac(a2-6)Gal(b1-4)GlcNAc(b1-2)Man(a1-3)[Neu5Ac(a2-6)Gal(b1-4)GlcNAc(b1-2)Man(a1-6)]Man(b1-4)GlcNAc(b1-4)GlcNAc
# In short: as §1
# [4] = molecular target: Neu5Ac(a2-6)Gal(b1-4)GlcNAc(b1-2)Man(a1-3)[Neu5Ac(a2-6)Gal(b1-4)GlcNAc(b1-2)Man(a1-6)]Man(b1-4)GlcNAc(b1-4)[Fuc(a1-6)]GlcNAc
# In short: as §1
# [5] = molecular target: Neu5Ac(a2-6)Gal(b1-4)GlcNAc(b1-2)Man(a1-6)Man(b1-4)GlcNAc(b1-4)GlcNAc
# In short: as §1
# [6] = molecular target: Neu5Ac(a2-6)Gal(b1-4)GlcNAc(b1-2)Man(a1-6)[Gal(b1-4)GlcNAc(b1-2)Man(a1-3)]Man(b1-4)GlcNAc(b1-4)GlcNAc
# In short: as §1
# [7] = molecular target: Neu5Ac(a2-6)Gal(b1-4)GlcNAc(b1-2)Man(a1-6)[GlcNAc(b1-2)Man(a1-3)]Man(b1-4)GlcNAc(b1-4)GlcNAc
# In short: as §1
# [8] = molecular target: Neu5Ac(a2-6)Gal(b1-4)GlcNAc(b1-2)Man(a1-6)[Man(a1-3)]Man(b1-4)GlcNAc(b1-4)GlcNAc
# In short: as §1
# [9] = molecular target: Neu5Ac(a2-6)Gal(b1-4)GlcNAc(b1-2)[Neu5Ac(a2-6)Gal(b1-4)GlcNAc(b1-4)]Man(a1-3)[GlcNAc(b1-4)][Neu5Ac(a2-6)Gal(b1-4)GlcNAc(b1-2)[Neu5Ac(a2-6)Gal(b1-4)GlcNAc(b1-6)]Man(a1-6)]Man(b1-4)GlcNAc(b1-4)GlcNAc
# In short: as §1
# [10] = molecular target: Neu5Ac(a2-6)Gal(b1-4)GlcNAc(b1-2)[Neu5Ac(a2-6)Gal(b1-4)GlcNAc(b1-4)]Man(a1-3)[GlcNAc(b1-4)][Neu5Ac(a2-6)Gal(b1-4)GlcNAc(b1-4)Man(a1-6)]Man(b1-4)GlcNAc(b1-4)GlcNAc
# In short: as §1
# [11] = molecular target: Neu5Ac(a2-6)Gal(b1-4)GlcNAc(b1-2)[Neu5Ac(a2-6)Gal(b1-4)GlcNAc(b1-6)]Man(a1-6)[Neu5Ac(a2-6)Gal(b1-4)GlcNAc(b1-2)Man(a1-3)][GlcNAc(b1-4)]Man(b1-4)GlcNAc(b1-4)GlcNAc
# In short: as §1
# [12] = molecular target: Neu5Ac(a2-6)Gal(b1-4)GlcNAc(b1-3)Gal(b1-3)GlcNAc
# In short: as §1
# [13] = molecular target: Neu5Ac(a2-6)Gal(b1-4)GlcNAc(b1-3)Gal(b1-4)GlcNAc
# In short: as §1
# [14] = molecular target: Neu5Ac(a2-6)Gal(b1-4)GlcNAc(b1-3)Gal(b1-4)GlcNAc(b1-2)Man(a1-3)[Neu5Ac(a2-6)Gal(b1-4)GlcNAc(b1-3)Gal(b1-4)GlcNAc(b1-2)Man(a1-6)]GalNAc
# In short: as §1
# [15] = molecular target: Neu5Ac(a2-6)Gal(b1-4)GlcNAc(b1-3)Gal(b1-4)GlcNAc(b1-3)Gal(b1-4)GlcNAc
# In short: as §1
# [16] = molecular target: Neu5Ac(a2-6)Gal(b1-4)GlcNAc(b1-3)Gal(b1-4)GlcNAc(b1-3)Gal(b1-4)GlcNAc(b1-2)Man(a1-3)[Neu5Ac(a2-6)Gal(b1-4)GlcNAc(b1-3)Gal(b1-4)GlcNAc(b1-3)Gal(b1-4)GlcNAc(b1-2)Man(a1-6)]GalNAc
# In short: as §1
# [17] = molecular target: Neu5Ac(a2-6)Gal(b1-4)GlcNAc(b1-3)Gal(b1-4)GlcNAc(b1-3)GalNAc
# In short: as §1
# [18] = molecular target: Neu5Ac(a2-6)Gal(b1-4)GlcNAc(b1-3)Gal(b1-4)GlcNAc(b1-3)[Neu5Ac(a2-6)Gal(b1-4)GlcNAc(b1-3)Gal(b1-4)GlcNAc(b1-6)]GalNAc
# In short: as §1
# [19] = molecular target: Neu5Ac(a2-6)Gal(b1-4)GlcNAc(b1-3)Gal(b1-4)GlcNAc(b1-6)[Gal(b1-3)]GalNAc
# In short: as §1
# [20] = molecular target: Neu5Ac(a2-6)Gal(b1-4)GlcNAc(b1-3)Gal(b1-4)[Fuc(a1-3)]GlcNAc(b1-3)Gal(b1-4)[Fuc(a1-3)]GlcNAc
# In short: as §1
# [21] = molecular target: Neu5Ac(a2-6)Gal(b1-4)GlcNAc(b1-3)GalNAc
# In short: as §1
# [22] = molecular target: Neu5Ac(a2-6)Gal(b1-4)GlcNAc(b1-3)[Neu5Ac(a2-6)Gal(b1-4)GlcNAc(b1-6)]GalNAc
# In short: as §1
# [23] = molecular target: Neu5Ac(a2-6)Gal(b1-4)GlcNAc(b1-6)GalNAc
# In short: as §1
# [24] = molecular target: Neu5Ac(a2-6)Gal(b1-4)GlcNAc(b1-6)[Gal(b1-3)GlcNAc(b1-3)]Gal(b1-4)Glc
# In short: as §1
# [25] = molecular target: Neu5Ac(a2-6)Gal(b1-4)GlcNAc(b1-6)[Gal(b1-3)]GalNAc
# In short: as §1
# [26] = molecular target: Neu5Ac(a2-6)Gal(b1-4)GlcNAc6S
# In short: as §1
# Neu5Ac(a2-6)GalNAc = molecular target: Neu5Ac(a2-6)GalNAc
# In short: as §1
# [27] = molecular target: Neu5Ac(a2-6)GalNAc(b1-4)GlcNAc
# In short: as §1
# [28] = molecular target: Neu5Ac(a2-6)GalNAc(b1-4)GlcNAc6S
# In short: as §1
# [29] = molecular target: Neu5Ac(a2-6)GlcNAc(b1-4)GlcNAc
# In short: as §1
# [30] = molecular target: Neu5Ac(a2-6)GlcNAc(b1-4)GlcNAc(b1-4)GlcNAc
# In short: as §1
binder,measurement,setting,value
B1,glycan array binding signal (z-score),[1],-0.44
same,glycan array binding signal (z-score),[2],-0.286
same,glycan array binding signal (z-score),[3],0.11
same,glycan array binding signal (z-score),[4],0.855
same,glycan array binding signal (z-score),[5],-0.263
same,glycan array binding signal (z-score),[6],-0.797
same,glycan array binding signal (z-score),[7],0.148
same,glycan array binding signal (z-score),[8],-1.24
same,glycan array binding signal (z-score),[9],0.011
same,glycan array binding signal (z-score),[10],-0.629
same,glycan array binding signal (z-score),[11],-0.019
same,glycan array binding signal (z-score),[12],0.175
same,glycan array binding signal (z-score),[13],-0.23
same,glycan array binding signal (z-score),[14],-0.235
same,glycan array binding signal (z-score),[15],-0.566
same,glycan array binding signal (z-score),[16],1.43
same,glycan array binding signal (z-score),[17],-1.03
same,glycan array binding signal (z-score),[18],-0.731
same,glycan array binding signal (z-score),[19],1.51
same,glycan array binding signal (z-score),[20],-0.012
same,glycan array binding signal (z-score),[21],0.577
same,glycan array binding signal (z-score),[22],0.452
same,glycan array binding signal (z-score),[23],-0.857
same,glycan array binding signal (z-score),[24],0.598
same,glycan array binding signal (z-score),[25],0.168
same,glycan array binding signal (z-score),[26],0.206
same,glycan array binding signal (z-score),Neu5Ac(a2-6)GalNAc,-0.426
same,glycan array binding signal (z-score),[27],0.187
same,glycan array binding signal (z-score),[28],-0.637
same,glycan array binding signal (z-score),[29],0.256
same,glycan array binding signal (z-score),[30],0.516

# Fetched one by one from the list above:
binder,measurement,setting,value
B1,glycan array binding signal (z-score),[8],-1.24
same,glycan array binding signal (z-score),[5],-0.263
